# At least one compound was matched to its structure with a doubt left.
# Tested on: Tat-induced HIV genome activation in J-Lat 6.3 cells
# Experiment: Tat-induced HIV genome activation in J-Lat 6.3 cells (GFP, FACS)
# Type: cell-based, human
# Details: 20 μM, 10 nM PMA, 17 hr
# Experimental: FIG. 12, related to FIG. 5. SEC inhibitors block transcription elongation in SEC-dependent rapid response models. […] (B) Gene Ontology analysis of the 136 identified heat shock-induced genes in HCT-116 cells. (C) Workflow of Tat-induced HIV genome activation in J-Lat 6.3 cells. J-Lat 6.3 cells contain an integrated copy of the HIV genome that has GFP replacing HIV nef and could be activated by Phorbol-12-Myristate-13-Acetate (PMA). J-Lat 6.3 cells were treated with vehicle or 20 μM SEC inhibitor along with PMA to activate the HIV genome transcription, which could be monitored by flow cytometry analysis. (D-E) SEC inhibitors block Tat-induced HIV genome activation in J-Lat 6.3 cells. (D) FACS analysis of J-Lat 6.3 cells treated with 10 nM PMA and SEC inhibitors for 17 hr. […] Unpaired two-way ANOVA was used to compare the groups between DMSO and SEC inhibitors. ***, p<0.001. Data are represented as Mean+/−SD. […]
# Induction of J-Lat 6.3 Cells. […] Cells were washed in PBS and GFP fluorescence was measured with a FACSVantage instrument (Becton Dickinson, San Jose, Calif.). […] A two-parameter analysis to distinguish GFP-derived fluorescence from background fluorescence was used: GFP was measured in FL1 and cellular autofluorescence was monitored in FL2. The percentage of GFP-positive cells was calculated based on live cells (Jordan et al., 2003).
smiles,measurement,value
"Cc1ccc(Cl)cc1NC(=O)C(=O)CC(=O)c1ccc(F)cc1 [KL-2, N-(5-chloro-2-methylphenyl)-4-oxo-(4-fluorophenyl)-2-oxobutanamide]",GFP expression after PMA induction,strong inhibition of GFP expression

# — patent US11453640B2, “Small molecules for disrupting the super elongation complex and inhibiting transcription elongation for cancer therapy” (NORTHWESTERN UNIVERSITY, priority 2018, dated 2022)
